The test concerns the target toll-like receptor 4 (TLR4) (UniProt Q9QUK6). Kind of test: co-IP; Co-immunoprecipitation of HMGB1 and TLR4, without and with rhLCN2 at rising concentrations; cells, bait and conditions not shown (supplementary methods).

Chains of the proteins cited; added tags and fusions are not shown. Residues count along the entry.
UniProt Q9QUK6, residues 26-835: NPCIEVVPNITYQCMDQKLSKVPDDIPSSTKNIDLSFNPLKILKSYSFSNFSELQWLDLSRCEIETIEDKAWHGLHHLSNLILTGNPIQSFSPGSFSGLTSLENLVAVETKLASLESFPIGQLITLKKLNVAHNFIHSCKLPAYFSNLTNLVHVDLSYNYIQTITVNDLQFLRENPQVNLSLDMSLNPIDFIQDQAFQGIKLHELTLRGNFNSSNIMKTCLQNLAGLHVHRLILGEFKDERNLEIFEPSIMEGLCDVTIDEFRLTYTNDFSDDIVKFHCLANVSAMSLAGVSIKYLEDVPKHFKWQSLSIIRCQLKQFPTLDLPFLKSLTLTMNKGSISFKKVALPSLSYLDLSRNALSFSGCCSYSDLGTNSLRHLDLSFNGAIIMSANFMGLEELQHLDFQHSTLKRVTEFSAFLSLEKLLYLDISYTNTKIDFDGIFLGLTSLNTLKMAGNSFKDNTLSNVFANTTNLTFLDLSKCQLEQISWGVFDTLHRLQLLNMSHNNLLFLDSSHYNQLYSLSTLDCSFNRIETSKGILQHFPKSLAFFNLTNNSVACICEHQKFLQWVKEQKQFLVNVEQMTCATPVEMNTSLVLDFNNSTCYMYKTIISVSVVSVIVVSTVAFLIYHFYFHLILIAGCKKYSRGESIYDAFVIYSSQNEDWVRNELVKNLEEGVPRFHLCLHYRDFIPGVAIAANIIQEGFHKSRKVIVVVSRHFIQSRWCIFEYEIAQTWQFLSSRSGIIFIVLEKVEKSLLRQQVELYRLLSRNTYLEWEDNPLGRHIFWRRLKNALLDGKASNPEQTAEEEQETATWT
UniProt P63158: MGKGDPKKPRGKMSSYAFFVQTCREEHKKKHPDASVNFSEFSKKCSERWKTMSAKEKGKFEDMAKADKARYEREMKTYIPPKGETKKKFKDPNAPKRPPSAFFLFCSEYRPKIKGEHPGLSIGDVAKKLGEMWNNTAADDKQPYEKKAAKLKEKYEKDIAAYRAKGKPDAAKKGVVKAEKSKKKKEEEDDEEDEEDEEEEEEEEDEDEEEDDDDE

This passage reports binding results from publication PMC12504543.

These are yes or no findings as the source states them, for the method shown. Binding seen in cells or lysates may run through a third protein. Some entries that bind do so weakly or less than the wild type.

As for “High-mobility group box 1 (HMGB1) (from UniProt P63158 1-215)”, the binding result was “binds”.
